Patent US20130071398A1
No constants are given. Whether binding was seen depends on the method and setting. Some binding calls cover weakened binding; strength is not graded here.

Legend:
[1] = molecular target: dog CAPRIN-1 in dog tissues (dog); assay: immunohistochemical staining of frozen dog breast cancer tissue
[2] = molecular target: dog CAPRIN-1 in dog tissues (dog); assay: immunohistochemical staining of frozen normal dog tissue sections, 10 ug/ml antibody
[3] = molecular target: T1, polypeptide of SEQ ID NO: 37, a partial sequence peptide in the CAPRIN-1 protein (human); assay: ELISA, CHO-K1 supernatant on immobilised peptide
T1 sequence (peptide): PPVNEPETLKQQNQYQAS

[4] = molecular target: dog CAPRIN-1 in dog tissues (dog); assay: immunohistochemical staining of frozen normal dog tissue sections

Measured: binding

B1: human-chicken chimeric antibody #1 (antibody, V domains shown)
VH: AVTLDESGGGLQTPGGALSLVCKASGFTFSGYDMLWVRQAPGKGLEWVAGIGSTGGGTDYGAAVKGRATISRDNGQSTVRLQLNNLRAEDTATYYCAKVAGGCNSGYCRDSPGSIDAWGHGTEVIVS
VL: AVTQQPASVSANPGETVKITCSGGGSRNYYGWYQQKSPGSVPVTVIYYDDQRPSNIPSRFSGALSGSTSTLTITGVQADDEAVYFCGSADSNTYEGSFGAGTTLTVL
binds: [1] | [2] | [3]

B2: human-chicken chimeric antibody #2 (antibody, V domains shown)
VH: AVTLDESGGGLQTPGGALSLVCKASGFTFSGYDMLWVRQAPGKGLEWVAGIGSTGGGTDYGAAVKGRATISRDNGQSTVRLQLNNLRAEDTATYYCAKVAGGCNSGYCRDSPGSIDAWGHGTEVIVS
VL: AVTQPPASVSANPGETVKITCSGGGSRNYYGWYQQKSPGSVPVTVIYYDDQRPSNIPSRFSGALSGSTSTLTITGVQADDEAVYFCGSADSNTYEGSFGAGTTLTVL
binds: [1] | [4] | [3]
